Experiment [1] addresses extracellular domain of mouse ICAM-1 (a.a. 28-485, polyhistidine-tagged), biotinylated (mouse) (UniProt P13597). The experiment in a line: confocal imaging of CTLs with fluorescent receptor on micropatterned ligand.
The target of a further experiment is dimeric Fc-ICAM1 (UniProt P13597). Nature of the experiment: FRET-based molecular tension probes.
In experiment [2] the target is extracellular domain of mouse ICAM-1 (a.a. 28-485, polyhistidine-tagged), biotinylated (mouse) (UniProt P13597). The experiment in a line: FRET-based molecular tension probes.

By UniProt entry, the sequences of proteins in these tests, tags left out. Where a name states a change or a piece, a line headed by the entry shows the natural chain unless it says otherwise. Residues count along the entry.
UniProt P13597, residues 28-485: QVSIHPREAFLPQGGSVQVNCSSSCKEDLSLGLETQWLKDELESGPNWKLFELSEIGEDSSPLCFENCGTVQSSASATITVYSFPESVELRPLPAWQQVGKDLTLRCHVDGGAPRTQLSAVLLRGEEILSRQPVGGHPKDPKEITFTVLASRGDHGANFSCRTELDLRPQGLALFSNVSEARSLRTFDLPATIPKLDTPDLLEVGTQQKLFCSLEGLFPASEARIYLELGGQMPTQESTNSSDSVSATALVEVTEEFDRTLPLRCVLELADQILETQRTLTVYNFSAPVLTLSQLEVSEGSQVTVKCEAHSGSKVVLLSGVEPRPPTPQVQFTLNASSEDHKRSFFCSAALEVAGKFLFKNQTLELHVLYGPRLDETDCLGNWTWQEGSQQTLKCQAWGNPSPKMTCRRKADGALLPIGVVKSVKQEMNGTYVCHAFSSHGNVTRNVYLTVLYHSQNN
UniProt P24063: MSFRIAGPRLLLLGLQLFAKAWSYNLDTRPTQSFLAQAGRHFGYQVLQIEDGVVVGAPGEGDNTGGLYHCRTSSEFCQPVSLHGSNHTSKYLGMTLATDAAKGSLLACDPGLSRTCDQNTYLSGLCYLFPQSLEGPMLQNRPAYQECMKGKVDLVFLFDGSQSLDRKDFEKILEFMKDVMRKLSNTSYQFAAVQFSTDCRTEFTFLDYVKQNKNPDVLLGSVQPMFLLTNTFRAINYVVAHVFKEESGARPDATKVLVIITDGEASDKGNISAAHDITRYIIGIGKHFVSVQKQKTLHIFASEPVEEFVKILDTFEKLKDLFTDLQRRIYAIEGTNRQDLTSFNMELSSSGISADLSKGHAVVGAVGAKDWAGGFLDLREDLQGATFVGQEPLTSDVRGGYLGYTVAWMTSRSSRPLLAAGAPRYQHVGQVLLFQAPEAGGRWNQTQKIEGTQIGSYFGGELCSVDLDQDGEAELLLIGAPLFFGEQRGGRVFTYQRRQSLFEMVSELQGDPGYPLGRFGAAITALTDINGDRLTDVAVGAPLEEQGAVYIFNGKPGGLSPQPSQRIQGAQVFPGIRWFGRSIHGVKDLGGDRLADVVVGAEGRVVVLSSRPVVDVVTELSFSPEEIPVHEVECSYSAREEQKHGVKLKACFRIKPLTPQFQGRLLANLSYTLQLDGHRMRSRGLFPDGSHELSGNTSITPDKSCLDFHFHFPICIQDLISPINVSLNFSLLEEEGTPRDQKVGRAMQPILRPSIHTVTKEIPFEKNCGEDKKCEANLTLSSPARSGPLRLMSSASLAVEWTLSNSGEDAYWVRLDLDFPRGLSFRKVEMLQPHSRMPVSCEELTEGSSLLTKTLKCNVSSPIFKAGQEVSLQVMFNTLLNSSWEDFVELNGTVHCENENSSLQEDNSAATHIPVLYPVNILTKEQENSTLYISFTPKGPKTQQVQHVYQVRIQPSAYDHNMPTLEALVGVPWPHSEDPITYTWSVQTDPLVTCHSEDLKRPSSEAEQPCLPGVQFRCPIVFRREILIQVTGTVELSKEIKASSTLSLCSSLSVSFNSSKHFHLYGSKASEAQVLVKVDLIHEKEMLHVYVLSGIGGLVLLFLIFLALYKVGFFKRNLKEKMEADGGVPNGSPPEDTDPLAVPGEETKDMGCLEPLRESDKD

Consider two substances from article doi:10.1101/2021.10.02.462778.

No constants are given. Whether binding was seen depends on the method and setting. For part of these data: Binding seen in cells or lysates may run through a third protein. Some results given as binding are weak or reduced against the parent protein; the word gives no strength.

Consider “LFA-1 with a fluorescent form of the LFA-1 α-chain (CD11a-YFP) (from UniProt P24063 24-1162; P11835 24-771) (receptor)”, for which the binding result in experiment [1] is “binds”. Regarding “αLβ2 integrin LFA-1 (Lymphocyte function-associated antigen-1) (from UniProt P24063 24-1162; P11835 24-771) (receptor)”, the binding result (with dimeric Fc-ICAM1; in experiment [2]) was “binds” in each case.
